Measurements reported in PubChem BioAssay AID1259254 (NCATS, 2017)
Here is an unselected part of about 59,000 reagents tested. In the full data, about 1,550 (2.6%) got an active call. 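G2 share is only a proxy for re-replication; each gene was hit by three separate siRNAs, and active genes were retested.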 The raw values are shown without normalisation. The numbers tell different reagents against one gene apart. Reagent sequences are not shown. The record does not give: the amount of reagent.

Test: 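Finding genes that stop cells copying their DNA twice in one cycle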 (primary screen)
Cells: human HCT116 colorectal cancer cells
Knock-down reagent: single siRNA against human genes
Timing: 3 days
Detection: 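Imaged Hoechst DNA stain sorts each cell into a cycle phase by DNA amount; per plate, G2 fraction set to 0% for non-targeting and 100% for GMNN siRNA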
Scale: G2 robust z-score and G2 cells, % of GMNN control: higher = more G2 cells, more excess DNA replication; raw share of cells in G2: higher = larger share of cells with G2 DNA content
Active means: 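Active siRNAs have a G2 robust z of 5 or more median absolute deviations over the median, which in these data means about 38% or higher of GMNN control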

target | siRNA no. | G2 robust z-score | G2 cells, % of GMNN control | raw share of cells in G2 (%) | Outcome
CHLSN | 1 | -0.536 | -0.801 | 3.84 | inactive
CHLSN | 2 | 1.86 | 16.1 | 8.22 | inactive
CHLSN | 3 | 0.327 | 5.27 | 4 | inactive
CDC27P6 | 1 | -0.0973 | 2.28 | 4.32 | inactive
CDC27P6 | 2 | 1.41 | 12.9 | 7.94 | inactive
CDC27P6 | 3 | 0.516 | 6.6 | 4.74 | inactive
UQCRC1 | 1 | 0.869 | 9.08 | 8.73 | inactive
UQCRC1 | 2 | -1.21 | -5.58 | 2.93 | inactive
UQCRC1 | 3 | 0.384 | 5.67 | 6.02 | inactive
PHAF1 | 1 | -0.272 | 1.06 | 4.88 | inactive
PHAF1 | 2 | -0.022 | 2.81 | 5.53 | inactive
PHAF1 | 3 | -1.12 | -4.92 | 1.03 | inactive
CD24 | 1 | 0.12 | 3.81 | 5.02 | inactive
CD24 | 2 | 6.62 | 49.6 | 28.5 | active
CD24 | 3 | 1.3 | 12.1 | 8.52 | inactive
MRO | 1 | 0.516 | 6.6 | 6.3 | inactive
MRO | 2 | 4.53 | 34.9 | 13.8 | inactive
MRO | 3 | 0.207 | 4.42 | 3.75 | inactive
SLC35B4 | 1 | -0.427 | -0.0358 | 4.07 | inactive
SLC35B4 | 2 | -1.17 | -5.25 | 1.36 | inactive
SLC35B4 | 3 | 1.71 | 15 | 7.67 | inactive
TM4SF18 | 1 | -0.265 | 1.1 | 4.53 | inactive
TM4SF18 | 2 | -0.606 | -1.29 | 2.94 | inactive
TM4SF18 | 3 | 0.364 | 5.53 | 3.43 | inactive
MYBPC1 | 1 | 2.4 | 19.8 | 9.74 | inactive
MYBPC1 | 2 | -0.346 | 0.532 | 5.68 | inactive
MYBPC1 | 3 | 0.991 | 9.94 | 9.2 | inactive
LPAR5 | 1 | 6.64 | 49.7 | 23.6 | active
LPAR5 | 2 | 0.961 | 9.73 | 7.92 | inactive
LPAR5 | 3 | -0.767 | -2.43 | 2.52 | inactive
AGBL2 | 1 | 3.76 | 29.4 | 14.8 | inactive
AGBL2 | 2 | 3.2 | 25.5 | 14.2 | inactive
AGBL2 | 3 | 1.04 | 10.3 | 9.71 | inactive
SCFD1 | 1 | 3.86 | 30.1 | 16.8 | inactive
SCFD1 | 2 | 1.47 | 13.3 | 9.63 | inactive
SCFD1 | 3 | -0.608 | -1.31 | 2.68 | inactive
ZBTB38 | 1 | -0.261 | 1.13 | 3.48 | inactive
ZBTB38 | 2 | -0.0983 | 2.28 | 3.96 | inactive
ZBTB38 | 3 | -0.259 | 1.14 | 3.93 | inactive
TRIM75 | 1 | 0.194 | 4.33 | 5.39 | inactive
TRIM75 | 2 | 1.21 | 11.5 | 8.06 | inactive
TRIM75 | 3 | 0.302 | 5.09 | 6.9 | inactive

An excerpt from above, showing only “G2 cells, % of GMNN control”.
CDC27P6 #1: 2.28
CDC27P6 #2: 12.9
CDC27P6 #3: 6.6
UQCRC1 #1: 9.08
UQCRC1 #2: -5.58
UQCRC1 #3: 5.67
PHAF1 #1: 1.06

Continued:
target | siRNA no. | G2 robust z-score | G2 cells, % of GMNN control | raw share of cells in G2 (%) | Outcome
NAP1L5 | 1 | -0.382 | 0.28 | 4.89 | inactive
NAP1L5 | 2 | 0.578 | 7.04 | 6.42 | inactive
NAP1L5 | 3 | -0.369 | 0.373 | 3.61 | inactive
KHDRBS1 | 1 | -0.941 | -3.65 | 5.04 | inactive
KHDRBS1 | 2 | 4.94 | 37.8 | 22.1 | inactive
KHDRBS1 | 3 | -0.447 | -0.179 | 3.78 | inactive
NPM2 | 1 | -0.627 | -1.44 | 3.05 | inactive
NPM2 | 2 | -0.713 | -2.05 | 5.08 | inactive
NPM2 | 3 | 2.85 | 23 | 13 | inactive
PRSS8 | 1 | 0.862 | 9.04 | 8.71 | inactive
PRSS8 | 2 | 0.52 | 6.63 | 7.25 | inactive
PRSS8 | 3 | -0.738 | -2.23 | 3.08 | inactive
SMDT1 | 1 | -0.529 | -0.755 | 2.76 | inactive
SMDT1 | 2 | 0.0119 | 3.05 | 3.89 | inactive
SMDT1 | 3 | 4.03 | 31.3 | 17.4 | inactive
RGL2 | 1 | 0.099 | 3.66 | 6.24 | inactive
RGL2 | 2 | 7.18 | 53.5 | 25.1 | active
RGL2 | 3 | 1.64 | 14.5 | 8.97 | inactive
LOC283788 | 1 | -0.912 | -3.45 | 2.38 | inactive
LOC283788 | 2 | -0.477 | -0.387 | 2.89 | inactive
LOC283788 | 3 | -0.467 | -0.319 | 3.17 | inactive
C22orf15 | 1 | -0.808 | -2.72 | 2.92 | inactive
C22orf15 | 2 | 0.0624 | 3.41 | 3.96 | inactive
C22orf15 | 3 | -0.631 | -1.47 | 2.56 | inactive
LPP | 1 | 0.0786 | 3.52 | 6.87 | inactive
LPP | 2 | -0.63 | -1.47 | 4.79 | inactive
LPP | 3 | 0.0113 | 3.05 | 4.2 | inactive
